{"source": "patent US20060167096A1", "about": "“Livestock products with an increased ppar/rxr heterodimer activator level” (priority 2003, published 2006)", "key": {"[1]": {"system": "ROSS 308 broiler chicks", "test": "Broiler feeding trial with phytol supplemented feed", "type": "in vivo, chicken", "details": "2% phytol in feed, 42 days", "procedure": "In the present specification the level of the PPAR/RXR heterodimer activator is expressed as a percentage of total FAME fatty acids. These total FAME fatty acids comprise those fatty acids with a linear chain of at least 12 carbons and are measured by the so-called FAME technique, which is well known for the skilled person and wherein, first, fatty acid methyl esters are prepared which are, subsequently, analysed via gas chromatography. The FAME procedure used for determining the results obtained by the present invention was as follows. Lipids were extracted from the samples using a dissolving solution that is specific to each sample type. Nonadecanoic acid (19:0) was added as an internal standard. The two-step methylation procedure consisted of using a basic reagent NaOH/methanol followed by an acid reagent HCI/methanol. The fatty acid methyl esters (FAME) were analyzed by GC (HP 6890, Hewlett-Packard, Brussels, Belgium) using a CP-Sil88 column for FAME (100 m×250 μm×0.25 μm) (Chrompack, Middelburg, The Netherlands). The GC conditions were as adapted to each sample type. Peaks were identified by comparison of retention times with those of the corresponding standards (Sigma, Botnew, Belgium; Nu-Chek-Prep, Elysian, M N). Identification of the peaks included fatty acids between 12:0 and 22:6 and 5 different CLA isomers and phytanic acid and pristanic acid. […]"}, "[2]": {"system": "ISABROWN layers", "test": "Layer feeding trial with phytol supplemented feed", "type": "in vivo", "details": "2% phytol fed"}, "[3]": {"system": "Tiger shrimp (Penaeus Monodon)", "test": "Shrimp feeding trial with phytol supplemented diet", "type": "in vivo", "details": "2% phytol diet, last two weeks"}}}
{"smiles": "C/C(=C\\CO)CCC[C@H](C)CCC[C@H](C)CCCC(C)C", "note": "[phytol]", "values": [{"measurement": "feed conversion rate", "setting": "[1]", "value": 2.120}, {"measurement": "ratio breast weight/total weight", "setting": "[1]", "value": 14.4, "unit": "%"}, {"measurement": "ADFI", "setting": "[2]", "value": 103.8, "unit": "g/a/d"}, {"measurement": "Daily egg mass", "setting": "[2]", "value": 52.1, "unit": "g/a/d"}, {"measurement": "Egg weight", "setting": "[2]", "value": 62.8, "unit": "g/a/d"}, {"measurement": "FCR", "setting": "[2]", "value": 2.0}, {"measurement": "Laying rate", "setting": "[2]", "value": 83.0, "unit": "%"}, {"measurement": "quality of the eggs (shell quality, color of the yolk)", "setting": "[2]; except less reddish yolk", "value": "did not change significantly"}, {"measurement": "feed consumed", "setting": "[3]", "value": 53.7, "unit": "g"}]}
